Measurements: patent US20040044006A1, “Methods of use of quinolone compounds against pneumococcal and haemophilus bacteria” (priority 1999, published 2004)
The name of at least one read-out is uncertain.

Tested on: penicillin susceptible and resistant pneumococcal strains (2 quinolone resistant)
Assay: Time-kill testing of 12 pneumococcal strains
Format: cell-based, Streptococcus pneumoniae
Conditions: of 12 strains (macrolides 7)
Summary of the method: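 Pneumococci at 5×10^5–5×10^6 cfu/ml were exposed to doubling antibiotic concentrations in cation-adjusted Mueller-Hinton broth + 5% lysed horse blood at 35 °C with shaking. Viable counts (detection limit 300 cfu/ml) were taken at 0, 3, 6, 12 and 24 h.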

SMILES: N[C@@H]1[C@H]2CN(c3nc4c(cc3F)c(=O)c(C(=O)O)cn4-c3ccc(F)cc3F)C[C@@H]12 [Trovafloxacin, trovafloxacin]
- No. strains −1 Log10 cfu/ml lower than 0 h (3 h, 0.25 × MIC): 0 No. strains
- No. strains −2 Log10 cfu/ml lower than 0 h (3 h, 0.25 × MIC): 0 No. strains
- No. strains −3 Log10 cfu/ml lower than 0 h (3 h, 0.25 × MIC): 0 No. strains
- No. strains −1 Log10 cfu/ml lower than 0 h (3 h, 0.5 × MIC): 0 No. strains
- No. strains −2 Log10 cfu/ml lower than 0 h (3 h, 0.5 × MIC): 0 No. strains
- No. strains −3 Log10 cfu/ml lower than 0 h (3 h, 0.5 × MIC): 0 No. strains
- No. strains −1 Log10 cfu/ml lower than 0 h (3 h, 2 × MIC): 5 No. strains
- No. strains −2 Log10 cfu/ml lower than 0 h (3 h, 2 × MIC): 1 No. strains
- No. strains −3 Log10 cfu/ml lower than 0 h (3 h, 2 × MIC): 0 No. strains
- No. strains −1 Log10 cfu/ml lower than 0 h (3 h, 4 × MIC): 9 No. strains
- No. strains −2 Log10 cfu/ml lower than 0 h (3 h, 4 × MIC): 2 No. strains
- No. strains −3 Log10 cfu/ml lower than 0 h (3 h, 4 × MIC): 0 No. strains
- No. strains −1 Log10 cfu/ml lower than 0 h (3 h, 8 × MIC): 12 No. strains
- No. strains −2 Log10 cfu/ml lower than 0 h (3 h, 8 × MIC): 3 No. strains
- No. strains −3 Log10 cfu/ml lower than 0 h (3 h, 8 × MIC): 0 No. strains
- No. strains −1 Log10 cfu/ml lower than 0 h (3 h, MIC): 4 No. strains
- No. strains −2 Log10 cfu/ml lower than 0 h (3 h, MIC): 0 No. strains
- No. strains −3 Log10 cfu/ml lower than 0 h (3 h, MIC): 0 No. strains
- No. strains −1 Log10 cfu/ml lower than 0 h (6 h, 0.25 × MIC): 0 No. strains
- No. strains −2 Log10 cfu/ml lower than 0 h (6 h, 0.25 × MIC): 0 No. strains
- No. strains −3 Log10 cfu/ml lower than 0 h (6 h, 0.25 × MIC): 0 No. strains
- No. strains −1 Log10 cfu/ml lower than 0 h (6 h, 0.5 × MIC): 0 No. strains
- No. strains −2 Log10 cfu/ml lower than 0 h (6 h, 0.5 × MIC): 0 No. strains
- No. strains −3 Log10 cfu/ml lower than 0 h (6 h, 0.5 × MIC): 0 No. strains
- No. strains −1 Log10 cfu/ml lower than 0 h (6 h, 2 × MIC): 11 No. strains
- No. strains −2 Log10 cfu/ml lower than 0 h (6 h, 2 × MIC): 4 No. strains
- No. strains −3 Log10 cfu/ml lower than 0 h (6 h, 2 × MIC): 0 No. strains
- No. strains −1 Log10 cfu/ml lower than 0 h (6 h, 4 × MIC): 12 No. strains
- No. strains −2 Log10 cfu/ml lower than 0 h (6 h, 4 × MIC): 9 No. strains
- No. strains −3 Log10 cfu/ml lower than 0 h (6 h, 4 × MIC): 1 No. strains
- No. strains −1 Log10 cfu/ml lower than 0 h (6 h, 8 × MIC): 12 No. strains
- No. strains −2 Log10 cfu/ml lower than 0 h (6 h, 8 × MIC): 10 No. strains
- No. strains −3 Log10 cfu/ml lower than 0 h (6 h, 8 × MIC): 1 No. strains
- No. strains −1 Log10 cfu/ml lower than 0 h (6 h, MIC): 6 No. strains
- No. strains −2 Log10 cfu/ml lower than 0 h (6 h, MIC): 2 No. strains
- No. strains −3 Log10 cfu/ml lower than 0 h (6 h, MIC): 0 No. strains
- No. strains −1 Log10 cfu/ml lower than 0 h (12 h, 0.25 × MIC): 0 No. strains
- No. strains −2 Log10 cfu/ml lower than 0 h (12 h, 0.25 × MIC): 0 No. strains
- No. strains −3 Log10 cfu/ml lower than 0 h (12 h, 0.25 × MIC): 0 No. strains
- No. strains −1 Log10 cfu/ml lower than 0 h (12 h, 0.5 × MIC): 0 No. strains
- No. strains −2 Log10 cfu/ml lower than 0 h (12 h, 0.5 × MIC): 0 No. strains
- No. strains −3 Log10 cfu/ml lower than 0 h (12 h, 0.5 × MIC): 0 No. strains
- No. strains −1 Log10 cfu/ml lower than 0 h (12 h, 2 × MIC): 12 No. strains
- No. strains −2 Log10 cfu/ml lower than 0 h (12 h, 2 × MIC): 11 No. strains
- No. strains −3 Log10 cfu/ml lower than 0 h (12 h, 2 × MIC): 7 No. strains
- No. strains −1 Log10 cfu/ml lower than 0 h (12 h, 4 × MIC): 12 No. strains
- No. strains −2 Log10 cfu/ml lower than 0 h (12 h, 4 × MIC): 10 No. strains
- No. strains −3 Log10 cfu/ml lower than 0 h (12 h, 4 × MIC): 8 No. strains
- No. strains −1 Log10 cfu/ml lower than 0 h (12 h, 8 × MIC): 12 No. strains
- No. strains −2 Log10 cfu/ml lower than 0 h (12 h, 8 × MIC): 12 No. strains
- No. strains −3 Log10 cfu/ml lower than 0 h (12 h, 8 × MIC): 9 No. strains
- No. strains −1 Log10 cfu/ml lower than 0 h (12 h, MIC): 7 No. strains
- No. strains −2 Log10 cfu/ml lower than 0 h (12 h, MIC): 4 No. strains
- No. strains −3 Log10 cfu/ml lower than 0 h (12 h, MIC): 1 No. strains
- No. strains −1 Log10 cfu/ml lower than 0 h (24 h, 0.25 × MIC): 0 No. strains
- No. strains −2 Log10 cfu/ml lower than 0 h (24 h, 0.25 × MIC): 0 No. strains
- No. strains −3 Log10 cfu/ml lower than 0 h (24 h, 0.25 × MIC): 0 No. strains
- No. strains −1 Log10 cfu/ml lower than 0 h (24 h, 0.5 × MIC): 0 No. strains
- No. strains −2 Log10 cfu/ml lower than 0 h (24 h, 0.5 × MIC): 0 No. strains
- No. strains −3 Log10 cfu/ml lower than 0 h (24 h, 0.5 × MIC): 0 No. strains
- No. strains −1 Log10 cfu/ml lower than 0 h (24 h, 2 × MIC): 11 No. strains
- No. strains −2 Log10 cfu/ml lower than 0 h (24 h, 2 × MIC): 11 No. strains
- No. strains −3 Log10 cfu/ml lower than 0 h (24 h, 2 × MIC): 11 No. strains
- No. strains −1 Log10 cfu/ml lower than 0 h (24 h, 4 × MIC): 12 No. strains
- No. strains −2 Log10 cfu/ml lower than 0 h (24 h, 4 × MIC): 12 No. strains
- No. strains −3 Log10 cfu/ml lower than 0 h (24 h, 4 × MIC): 12 No. strains
- No. strains −1 Log10 cfu/ml lower than 0 h (24 h, 8 × MIC): 12 No. strains
- No. strains −2 Log10 cfu/ml lower than 0 h (24 h, 8 × MIC): 12 No. strains
- No. strains −3 Log10 cfu/ml lower than 0 h (24 h, 8 × MIC): 12 No. strains
- No. strains −1 Log10 cfu/ml lower than 0 h (24 h, MIC): 6 No. strains
- No. strains −2 Log10 cfu/ml lower than 0 h (24 h, MIC): 1 No. strains
- No. strains −3 Log10 cfu/ml lower than 0 h (24 h, MIC): 1 No. strains
